Test results reported in PMC13239758.
Results are given in words; binding and its absence hold for the method and conditions named. For some assays here: In cells and extracts the contact can be indirect. Some binding calls cover weakened binding; strength is not graded here.

Sequences of proteins named here, by UniProt entry; tags and fusion partners are left off.
UniProt Q8R4B8: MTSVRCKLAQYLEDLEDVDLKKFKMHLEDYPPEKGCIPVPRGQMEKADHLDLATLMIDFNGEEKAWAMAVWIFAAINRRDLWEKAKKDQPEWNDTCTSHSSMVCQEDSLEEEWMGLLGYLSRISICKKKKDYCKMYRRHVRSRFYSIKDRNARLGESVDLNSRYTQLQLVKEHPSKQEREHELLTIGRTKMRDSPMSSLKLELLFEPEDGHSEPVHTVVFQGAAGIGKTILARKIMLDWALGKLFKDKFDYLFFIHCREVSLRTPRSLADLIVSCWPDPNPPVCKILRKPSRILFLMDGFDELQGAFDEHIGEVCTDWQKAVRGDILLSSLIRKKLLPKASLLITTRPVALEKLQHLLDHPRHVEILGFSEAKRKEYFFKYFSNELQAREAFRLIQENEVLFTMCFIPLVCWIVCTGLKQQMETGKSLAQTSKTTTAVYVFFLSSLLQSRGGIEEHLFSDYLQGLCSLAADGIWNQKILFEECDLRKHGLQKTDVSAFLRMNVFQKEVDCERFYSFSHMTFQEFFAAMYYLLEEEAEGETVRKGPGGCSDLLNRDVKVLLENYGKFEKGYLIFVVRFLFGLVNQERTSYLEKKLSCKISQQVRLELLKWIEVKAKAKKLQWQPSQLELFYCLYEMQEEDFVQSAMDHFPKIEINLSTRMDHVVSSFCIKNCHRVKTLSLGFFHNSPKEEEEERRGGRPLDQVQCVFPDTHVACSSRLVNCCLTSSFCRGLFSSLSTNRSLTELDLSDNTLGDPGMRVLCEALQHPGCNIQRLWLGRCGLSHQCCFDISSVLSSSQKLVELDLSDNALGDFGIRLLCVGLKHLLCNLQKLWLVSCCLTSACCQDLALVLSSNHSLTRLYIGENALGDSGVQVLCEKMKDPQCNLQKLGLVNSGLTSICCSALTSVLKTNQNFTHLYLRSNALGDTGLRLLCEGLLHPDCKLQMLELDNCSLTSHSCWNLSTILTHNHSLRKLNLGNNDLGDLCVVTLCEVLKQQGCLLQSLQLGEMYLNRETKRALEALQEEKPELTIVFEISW

Key:
[1] = target: T1, CD63 (endogenous, mouse BMMCs) (mouse (endogenous in BMMCs)) (UniProt P41731); experiment: condition: only cells pretreated with PF-431396 (10 μM); co-IP; endogenous proteins; IgE–Ag-stimulated WT BMMCs pretreated with PF-431396 (10 μM) for 30 min; IP of Pyk2 or CD63, immunoblot
T1 sequence: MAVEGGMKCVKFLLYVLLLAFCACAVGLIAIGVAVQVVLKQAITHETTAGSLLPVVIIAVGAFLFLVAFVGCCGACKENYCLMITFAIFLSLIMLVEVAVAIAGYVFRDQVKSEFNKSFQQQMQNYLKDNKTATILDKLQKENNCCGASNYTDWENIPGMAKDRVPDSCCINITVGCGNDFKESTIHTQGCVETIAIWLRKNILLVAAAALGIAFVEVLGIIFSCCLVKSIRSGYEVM

[2] = target: T1, CD63 (endogenous, mouse BMMCs) (mouse (endogenous in BMMCs)); experiment: co-IP; endogenous proteins; IgE-sensitised WT (also Asc−/−) BMMCs untreated or stimulated with Ag (DNP-BSA 1 μg/ml) for 3-30 min; 1 mg pre-cleared lysate in IP lysis buffer, 1 μg antibody to CD63, NLRP3, ASC, NEK7 or Pyk2 overnight at 4 °C, G-plus agarose, immunoblot; some samples pretreated with BAPTA-AM, CAY-10736, oridonin or CY-09
[3] = target: T1, CD63 (endogenous, mouse BMMCs) (mouse (endogenous in BMMCs)); experiment: condition: only cells pretreated with CAY-10736 or oridonin (10 μM); co-IP; endogenous proteins; IgE–Ag-stimulated WT BMMCs pretreated with CAY-10736 (10 μM) or oridonin (10 μM) for 30 min; IP of CD63, immunoblot
[4] = target: T1, CD63 (endogenous, mouse BMMCs) (mouse (endogenous in BMMCs)); experiment: SEC; lysate of WT BMMCs treated with LPS (12 h)/nigericin (15 min); Sephacryl 100 HR, 50 mM Tris-HCl pH 7.4, 150 mM NaCl, 1% octyl glucoside; fractions immunoblotted for NLRP3, ASC, caspase-1, CD63
[5] = target: T1, CD63 (endogenous, mouse BMMCs) (mouse (endogenous in BMMCs)); experiment: SEC; lysate of WT BMMCs stimulated with IgE–Ag for 5 min; Sephacryl 100 HR, 50 mM Tris-HCl pH 7.4, 150 mM NaCl, 1% octyl glucoside; fractions immunoblotted for NLRP3, ASC, caspase-1, CD63

NLRP3 (endogenous, mouse BMMCs) (from UniProt Q8R4B8 1-1033)
binding [1]: no binding | binding [2]: binds | binding [3]: no binding | binding [4]: binds weakly | binding [5]: binds
